Source: PubChem BioAssay AID248 (DTP/NCI, 2004)
The list is a part of this screen's results and no random one: it gathers tests that were run many times, whatever their T/C, doses with no T/C, and many T/C values between a quarter and a half above the control. Other doses and runs of a compound stand elsewhere. T/C is the treated group as % of the vehicle group. Where survival is the endpoint, the PubChem record calls one and a half times the control and up active, and a quarter to a half above the control has no call in these data; cut-offs in other NCI protocols can differ. Schedules are NCI's codes, read here as Q, the interval in days (D) or hours (H), X, the number of doses. Some entries were tested several times; their values stand side by side, smallest first. Marks such as (2×) count equal records among those shown. Some schedules carry Z or #; the key to these is not given. Some T/C values are followed by the survivors on the day toxicity was checked, most often the fifth; where none is given, no animal had died by that day.

Tested on: L1210 leukemia ip in BDF1 mice, survival T/C
Assay: NCI In Vivo Anticancer Drug Screen. Data for tumor model L1210 Leukemia (intraperitoneal) in B6D2F1 (BDF1) mice
Conditions: T/C endpoint: mean survival time, higher T/C = longer survival

With S=c1nc[nH]c2nc[nH]c12 the T/C (dose: 27.0 mg/kg/injection, schedule: Q## X009 (ip), vehicle: alkali diluted with saline) was 142 % of control, the T/C (dose: 28.0 mg/kg/injection, schedule: Q01DX Z (ip), vehicle: carboxymethylcellulose (CMC)) was 136, 141, 149, 162, 166, 177, 181, 183, 195 % of control and the T/C (dose: 28.0 mg/kg/injection, schedule: Q01DX Z (oral), vehicle: carboxymethylcellulose (CMC)) was 132, 134, 135, 147, 164 % of control. For the same compound, the T/C (dose: 29.0 mg/kg/injection, schedule: Q01DX009 (ip), vehicle: alkali diluted with saline) was 118, 122, 124, 131 % of control, the T/C (dose: 30.0 mg/kg/injection, schedule: Q01DX001 (ip), vehicle: saline, evaluated on day 30) was 129, 133, 136 (2×), 138, 140, 149, 152 % of control and the T/C (dose: 30.0 mg/kg/injection, schedule: Q01DX001 (ip), vehicle: saline, evaluated on day 35) was 109 % of control. The T/C (dose: 30.0 mg/kg/injection, schedule: Q01DX005 (ip), vehicle: saline) was 131 % of control, the T/C (dose: 30.0 mg/kg/injection, schedule: Q01DX009 (ip), vehicle: alkali diluted with saline) was 128 % of control and the T/C (dose: 30.0 mg/kg/injection, schedule: Q01DX009 (ip), vehicle: saline) was 126 % of control. The T/C (dose: 30.0 mg/kg/injection, schedule: Q01DX014 (ip), vehicle: alkali diluted with saline) was 138 and 143 % of control, the T/C (dose: 30.0 mg/kg/injection, schedule: Q01DX015 (ip), vehicle: alkali diluted with saline) was 129 % of control and the T/C (dose: 30.0 mg/kg/injection, schedule: Q01DX015 (ip), vehicle: other) was 138 % of control. For the same compound, the T/C (dose: 30.0 mg/kg/injection, schedule: Q01DX015 (ip), vehicle: saline) was 132 % of control, the T/C (dose: 30.0 mg/kg/injection, schedule: Q03DX Z (ip), vehicle: other) was 148 % of control and the T/C (dose: 33.0 mg/kg/injection, schedule: Q02DX010 (ip), vehicle: carboxymethylcellulose (CMC)) was 147 (2×), 173, 176, 192, 193, 195, 201, 208, 210 % of control. The T/C (dose: 33.5 mg/kg/injection, schedule: Q02DX010 (ip), vehicle: other) was 140 % of control, the T/C (dose: 34.17 mg/kg/injection, schedule: Q02DX010 (ip), vehicle: carboxymethylcellulose (CMC)) was 150, 172, 181, 209, 210 % of control and the T/C (dose: 35.0 mg/kg/injection, schedule: Q01DX001 (ip), vehicle: other) was 137 % of control. For the same compound, the T/C (dose: 38.0 mg/kg/injection, schedule: Q02DX010 (ip), vehicle: alkali diluted with saline) was 132 % of control, the T/C (dose: 39.0 mg/kg/injection, schedule: Q01DX009 (ip), vehicle: other) was 137 % of control and the T/C (dose: 40.0 mg/kg/injection, schedule: Q01DX001 (ip), vehicle: carboxymethylcellulose (CMC)) was 134 and 136 % of control. For the same compound, the T/C (dose: 40.0 mg/kg/injection, schedule: Q01DX005 (ip), vehicle: alkali diluted with water) was 130 % of control, the T/C (dose: 40.0 mg/kg/injection, schedule: Q01DX005 (ip), vehicle: other) was 116, 117, 118, 121, 122 (2×), 127, 129, 131, 134, 135 (2×), 146 % of control and the T/C (dose: 40.0 mg/kg/injection, schedule: Q01DX009 (ip), vehicle: alkali diluted with saline, evaluated on day 5) was 127 and 142 % of control. For the same compound, the T/C (dose: 40.0 mg/kg/injection, schedule: Q01DX009 (ip), vehicle: alkali diluted with saline, evaluated on day 45) was 121, 125, 153, 161 % of control, the T/C (dose: 40.0 mg/kg/injection, schedule: Q01DX009 (oral), vehicle: saline with Tween-80) was 140 % of control and the T/C (dose: 40.0 mg/kg/injection, schedule: Q01DX010 (ip), vehicle: alkali diluted with saline) was 113, 120, 128, 131 % of control. For the same compound, the T/C (dose: 40.0 mg/kg/injection, schedule: Q01DX015 (ip), vehicle: alkali diluted with saline, evaluated on day 5) was 115, 123, 127 (2×), 128, 133, 134, 135, 136, 137 (2×), 145 % of control, the T/C (dose: 40.0 mg/kg/injection, schedule: Q01DX015 (ip), vehicle: alkali diluted with saline, evaluated on day 35) was 134 % of control and the T/C (dose: 40.0 mg/kg/injection, schedule: Q01DX015 (ip), vehicle: alkali diluted with saline, evaluated on day 45) was 127, 133, 135, 137 % of control (2×). For the same compound, the T/C (dose: 40.0 mg/kg/injection, schedule: Q01DX015 (ip), vehicle: alkali diluted with saline, evaluated on day 46) was 108 % of control, the T/C (dose: 40.0 mg/kg/injection, schedule: Q01DX Z (im), vehicle: other) was 143 % of control and the T/C (dose: 40.0 mg/kg/injection, schedule: Q01DX Z (ip), vehicle: carboxymethylcellulose (CMC)) was 145 % of control. For the same compound, the T/C (dose: 40.0 mg/kg/injection, schedule: Q01DX Z (sc), vehicle: other) was 145 % of control, the T/C (dose: 40.0 mg/kg/injection, schedule: Q## X009 (ip), vehicle: alkali diluted with saline) was 142 % of control and the T/C (dose: 40.0 mg/kg/injection, schedule: Q## X015 (ip), vehicle: alkali diluted with saline) was 145 % of control. The T/C (dose: 40.0 mg/kg/injection, schedule: Q## X032 (ip), vehicle: alkali diluted with saline) was 146 % of control, the T/C (dose: 44.0 mg/kg/injection, schedule: Q01DX015 (ip), vehicle: alkali diluted with saline) was 134 % of control and the T/C (dose: 45.0 mg/kg/injection, schedule: Q01DX009 (ip), vehicle: alkali diluted with saline) was 134 % of control. For the same compound, the T/C (dose: 45.0 mg/kg/injection, schedule: Q01DX009 (ip), vehicle: carboxymethylcellulose (CMC)) was 139 % of control, the T/C (dose: 45.0 mg/kg/injection, schedule: Q01DX015 (ip), vehicle: other) was 142 and 144 % of control and the T/C (dose: 49.5 mg/kg/injection, schedule: Q02DX010 (ip), vehicle: carboxymethylcellulose (CMC)) was 146, 172, 173, 176, 188 % of control. The T/C (dose: 50.0 mg/kg/injection, schedule: Q01DX001 (ip), vehicle: steroid suspending solution) was 137 % of control, the T/C (dose: 50.0 mg/kg/injection, schedule: Q01DX015 (ip), vehicle: alkali diluted with saline, evaluated on day 5) was 132, 147, 148, 168 % of control and the T/C (dose: 50.0 mg/kg/injection, schedule: Q01DX015 (ip), vehicle: alkali diluted with saline, evaluated on day 30) was 132 and 168 % of control. The T/C (dose: 50.0 mg/kg/injection, schedule: Q01DX015 (ip), vehicle: alkali diluted with saline, evaluated on day 45) was 148 % of control, the T/C (dose: 50.0 mg/kg/injection, schedule: Q01DX015 (ip), vehicle: alkali diluted with saline, evaluated on day 46) was 138 % of control and the T/C (dose: 50.0 mg/kg/injection, schedule: Q01DX Z (ip), vehicle: other) was 135 % of control. For the same compound, the T/C (dose: 50.0 mg/kg/injection, schedule: Q02DX010 (ip), vehicle: carboxymethylcellulose (CMC)) was 168, 171, 196 % of control (2×), the T/C (dose: 50.0 mg/kg/injection, schedule: Q02DX010 (ip), vehicle: other) was 128 [4 of 5 alive], 166, 169, 182 % of control and the T/C (dose: 50.0 mg/kg/injection, schedule: Q## X015 (ip), vehicle: alkali diluted with saline) was 149 % of control. The T/C (dose: 51.0 mg/kg/injection, schedule: Q02DX010 (ip), vehicle: carboxymethylcellulose (CMC)) was 144, 146, 152, 166, 172, 197 % of control, the T/C (dose: 56.0 mg/kg/injection, schedule: Q01DX Z (ip), vehicle: carboxymethylcellulose (CMC)) was 122, 125, 151, 160 % of control and the T/C (dose: 56.0 mg/kg/injection, schedule: Q01DX Z (oral), vehicle: carboxymethylcellulose (CMC)) was 133, 151, 167, 168, 176 % of control. The T/C (dose: 56.3 mg/kg/injection, schedule: Q01DX015 (ip), vehicle: other) was 134 % of control, the T/C (dose: 57.0 mg/kg/injection, schedule: Q01DX009 (ip), vehicle: alkali diluted with saline) was 137, 139, 144, 148 % of control and the T/C (dose: 57.0 mg/kg/injection, schedule: Q02DX010 (ip), vehicle: alkali diluted with saline) was 144 % of control. For the same compound, the T/C (dose: 59.0 mg/kg/injection, schedule: Q01DX001 (ip), vehicle: carboxymethylcellulose (CMC)) was 137 % of control, the T/C (dose: 60.0 mg/kg/injection, schedule: Q01DX001 (ip), vehicle: carboxymethylcellulose (CMC)) was 137 % of control and the T/C (dose: 60.0 mg/kg/injection, schedule: Q01DX001 (ip), vehicle: saline, evaluated on day 30) was 131, 142, 144, 145, 149 (2×), 157, 160 % of control. The T/C (dose: 60.0 mg/kg/injection, schedule: Q01DX001 (ip), vehicle: saline, evaluated on day 35) was 117 % of control, the T/C (dose: 60.0 mg/kg/injection, schedule: Q01DX005 (ip), vehicle: saline) was 126 % of control and the T/C (dose: 60.0 mg/kg/injection, schedule: Q01DX009 (ip), vehicle: alkali diluted with saline, evaluated on day 5) was 134 and 160 % of control. The T/C (dose: 60.0 mg/kg/injection, schedule: Q01DX009 (ip), vehicle: alkali diluted with saline, evaluated on day 45) was 140, 144, 164, 204 % of control, the T/C (dose: 60.0 mg/kg/injection, schedule: Q01DX009 (ip), vehicle: alkali diluted with saline, evaluated on day 60) was 133 and 150 % of control and the T/C (dose: 60.0 mg/kg/injection, schedule: Q01DX009 (ip), vehicle: carboxymethylcellulose (CMC)) was 131 % of control. The T/C (dose: 60.0 mg/kg/injection, schedule: Q01DX014 (ip), vehicle: alkali diluted with saline) was 137 and 144 % of control, the T/C (dose: 60.0 mg/kg/injection, schedule: Q01DX015 (ip), vehicle: alkali diluted with saline, evaluated on day 5) was 125, 138, 139, 140, 149, 151 (2×), 155, 159, 161, 164, 169 % of control and the T/C (dose: 60.0 mg/kg/injection, schedule: Q01DX015 (ip), vehicle: alkali diluted with saline, evaluated on day 35) was 161 % of control. For the same compound, the T/C (dose: 60.0 mg/kg/injection, schedule: Q01DX015 (ip), vehicle: alkali diluted with saline, evaluated on day 45) was 138, 140, 151, 164, 169 % of control, the T/C (dose: 60.0 mg/kg/injection, schedule: Q01DX015 (ip), vehicle: alkali diluted with saline, evaluated on day 46) was 130 % of control and the T/C (dose: 60.0 mg/kg/injection, schedule: Q01HX006 (ip), vehicle: saline) was 138 % of control. The T/C (dose: 60.0 mg/kg/injection, schedule: Q02DX008 (ip), vehicle: alkali diluted with saline) was 125 and 132 % of control.
